Experimental data from PubChem BioAssay AID2685 (National Center for Advancing Translational Sciences (NCATS), 2010).
Values joined by “and” are separate entries in the source; they are usually repeats but may differ in a detail not shown here. Identical values can stand only once. This is one part of the list. The main result of the screen is listed elsewhere. These columns were measured beside it and carry no call. Most of these compounds were active or inconclusive in the main read-out, so they are no random draw. Potencies come from curve fits of mixed quality, noted in brackets.

Assay: qHTS Assay for Lipid Storage Modulators in Drosophila S3 Cells;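 as to cell number change: cells counted by Cell Tracker Red CMTPX staining in the red channel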
Settings: BODIPY lipid droplet fluorescence, 18-24 h; for cell number change: measured here: cell count max response, cells fed with added oleic acid
Method in brief: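 Laser-scanning cytometry quantifies lipid droplet accumulation (500–530 nm total intensity; droplet/cell object ratio) in oleic acid-fed (400 uM added) Drosophila S3 cells treated with a concentration series. 20 uM Triacsin C defined 100% inhibition.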

[1] = measured here: lipid fluorescence (Fed channel) AC50, cells fed with added oleic acid
[2] = measured here: cell number channel AC50, cells fed with added oleic acid

| Compound | cell number change | AC50 [1] | AC50 [2] |
| --- | --- | --- | --- |
| Cc1ccc(N(C(=O)c2snc(C(N)=O)c2N)C(C(=O)NC2CCCC2)c2ccc(C)o2)cc1 (stereo not drawn) | -2.63% | 5.62 µM [falling, single point] |  |
| Cc1cc(C(=O)NNC(=O)c2cccs2)nn1C(C)(C)C |  | 4.11 µM [rising, single point] |  |
| COCCNC(=O)C(=O)Nc1ccc(Cl)cc1C | 6.28% | 18.4 µM [rising, single point] |  |
| COC(=O)C1CCN(c2cc(=O)n(-c3ccccc3Cl)c(=O)[nH]2)CC1 | 14.6% | 5.8 µM [rising, partial curve, poor fit] |  |
| COc1ccc(NC(=O)CSc2nc(O)cc(=O)n2C)cc1 | -54.8% |  | 2.91 µM [falling, full curve] |
| COc1ccc(C(=O)NNC(=O)CSc2nnc(COc3ccccc3OC)n2C)cc1 | 6.42% |  | 4.11 µM [falling, single point] |
| CCc1ccc(NC(=O)CC2C(=O)N(c3ccc(C)cc3)C(=O)N2C2CC2)cc1 (stereo not drawn) | -4.5% | 0.13 µM [rising, single point] |  |
| COc1ccc(N2CC(C(=O)N/N=C/c3c[nH]c4ccccc34)CC2=O)cc1 (stereo not drawn) | -32.5% | 29.1 µM [falling, single point] | 0.00461 µM [falling, full curve, poor fit] |
| CC1CCCC(C)N1c1nnc(NC(=O)c2cc(-c3ccc(Br)cc3)on2)s1 (stereo not drawn) | 5.41% |  |  |
| Cc1ccc(NS(=O)(=O)c2ccc3c(c2)NC(=O)CO3)cc1C | -18.3% |  | 0.517 µM [falling, full curve, poor fit] |
| O=C(COc1ccccc1Cl)Nc1ccc2c(c1)C(=O)NC2=O | 7.57% | 29.1 µM [rising, single point] |  |
| COC(=O)[C@H](C)NC(=O)Nc1cc(OC)ccc1OC | -95.1% | 20.6 µM [falling, partial curve] | 25.9 µM [falling, partial curve, poor fit] |
| CCN(CC)S(=O)(=O)c1ccc(-c2nnc(SCC(=O)Nc3ccc4c(c3)OCO4)o2)cc1 | 6.37% | 1.3 µM [rising, partial curve] |  |
| O=c1ccc2cc3c4c(c2o1)CCCN4CCC3 | 25.9% | 3.26 µM [rising, partial curve, poor fit] |  |
| CCc1noc(C)c1C(=O)Nc1nc2ccc(S(C)(=O)=O)cc2s1 | -38% |  | 32.6 µM [falling, single point] |
| CCOc1ccc(N(CC(=O)Nc2c(C)cccc2C)S(=O)(=O)c2c(C)[nH]c(=O)[nH]c2=O)cc1 | -26.6% | 0.146 µM [falling, full curve, poor fit] |  |
| COC(=O)c1ccc(OCC(O)CN2CCOCC2)cc1 (stereo not drawn) | -2.7% | 1.3 µM [rising, full curve, poor fit] |  |
| COC(=O)C1=C(O)C(C(=O)OC)C(c2ccc(C)cc2)C(C#N)(C#N)C1c1ccc(C)cc1 (stereo not drawn) | -17.9% | 23.1 µM [falling, partial curve, poor fit] |  |
| O=c1[nH]nc(-c2ccc(F)cc2)cc1Cc1cccs1 | 11.3% | 29.1 µM [rising, single point] |  |
| S=C(Nc1ccc(Nc2ccccc2)cc1)Nc1ccccn1 | -52% | 25.9 µM [falling, partial curve] | 0.731 µM [falling, full curve] |

| Compound | cell number change | AC50 [1] | AC50 [2] |
| --- | --- | --- | --- |
| O=C(NCCc1cccc(Cl)c1)C1CCC(=O)N(Cc2ccc(Cl)cc2)C1 (stereo not drawn) | 44.6% |  | 29.1 µM [rising, single point] |
| CCCCCn1c(N2CCN(c3cccc(Cl)c3)CC2)nc2c1c(=O)[nH]c(=O)n2C | -11.1% | 29.1 µM [falling, single point] |  |
| COC(=O)CCCC[C@H]1SC[C@H]2NC(=O)N[C@]21O | 3.73% | 29.1 µM [falling, single point] |  |
| CCN(CC)S(=O)(=O)c1ccc(N=NC2=C(O)CC(C)(C)CC2=O)cc1 | 1.88% | 7.31 µM [rising, partial curve, poor fit] |  |
| Nc1cc(-c2ccc(Br)cc2)[nH]n1 | -4.28% | 10.3 µM [rising, partial curve] |  |
| S=C(Nc1ccccc1Cl)N(Cc1cccnc1)Cc1ccco1 |  |  | 6.51 µM [rising, single point] |
| O=C(O)C1C2C=CC(CC2)C1C(=O)O (stereo not drawn) | -14.2% | 2.06 µM [falling, partial curve, poor fit] |  |
| CCCCNC(=S)Nc1ccc(SC(F)F)cc1 | 6.84% |  |  |
| Cc1nc2cc(-c3ccccc3)nn2c(N)c1-c1ccccc1 | 30.9% | 0.0146 µM [rising, partial curve, poor fit] | 0.0259 µM [rising, full curve, poor fit] |
| Cc1cccc(CNC(=O)Cn2ccc3cc(S(=O)(=O)N4CCCCCC4)ccc32)c1 | -35.7% | 1.46 µM [falling, partial curve] | 5.17 µM [falling, partial curve, poor fit] |
| CCSc1cc(N2CCCC2)nc(-c2ccccc2)n1 | 8.93% |  |  |
| O=C(O)c1ncc(Cl)c(Cl)c1Cl | -18.4% and -10.9% | 820 nM [falling, full curve] and 58 nM [falling, full curve, poor fit] | 0.058 µM [falling, full curve, poor fit] |
| O=[N+]([O-])c1cccc(/C=C2\CCC(/C=N/Nc3ccc4ccccc4n3)=C2N2CCOCC2)c1 | 16.8% | 1.3 µM [rising, full curve, poor fit] |  |
| COC(=O)c1cc2c(ccn2-c2ccc(F)cc2)n1CC(=O)N1CCN(C(=O)c2ccco2)CC1 | -25.4% | 0.231 µM [rising, full curve, poor fit] |  |
| C=CCn1c(=O)c(C(C)=O)cn(N(C)c2ncc(C(F)(F)F)cc2Cl)c1=O | 7.73% |  |  |
| O=C1CC(c2cccc(Br)c2)C2=C(COC2=O)N1 (stereo not drawn) | -39.4% | 0.00517 µM [falling, full curve, poor fit] | 0.164 µM [falling, full curve, poor fit] |
| CN1CCN(c2ccc(S(=O)(=O)N3CCOCC3)cc2NC(=O)Cc2ccccc2F)CC1 | 16% |  | 0.259 µM [rising, partial curve, poor fit] |
| Cc1c(N=C2Nc3cccc4cccc2c34)c(=O)n(-c2ccccc2)n1C | 26.7% | 0.259 µM [falling, full curve] |  |
| CC1C2(C)OC(=N)C(C#N)(C(C)O2)C1(C#N)C#N (stereo not drawn) |  | 0.206 µM [rising, full curve, poor fit] |  |
| Cc1cc(C)n2nc(C(=O)N3CCN(Cc4ccc5c(c4)OCO5)CC3)nc2n1 | -19.8% | 2.06 µM [falling, partial curve] |  |

| Compound | cell number change | AC50 [1] | AC50 [2] |
| --- | --- | --- | --- |
| Cc1cccc(C(=O)Nc2ccc(NC(=O)c3ccccc3)cc2)c1 | -24.1% | 23.1 µM [falling, single point] |  |
| CCn1c2c(c(C)cc1=O)C(=O)CC(C)(C)C2 |  |  | 0.461 µM [falling, single point] |
| CCOc1ccc(-n2c(SC)nc3c(c2=O)SCC3)cc1 | -17.7% | 0.206 µM [falling, full curve] |  |
| Cc1cc(NC(=O)CSc2nnc3c(C)cc4cc5c(cc4n23)OCO5)no1 | -1.55% |  |  |
| CN1CCCN(C(=O)Cc2c(Cl)cccc2Cl)c2nc3ccccc3nc21 | -14.2% | 1.64 µM [rising, partial curve] |  |
| COc1ccc2oc(C(=O)Nc3nc(C)cs3)c(C)c2c1 | -17.5% | 2.59 µM [falling, full curve] |  |
| COc1cccc(/C=N/NC(=O)c2nc(-c3ccccc3)cc(-c3ccccc3)n2)c1 |  | 13 µM [falling, partial curve] |  |
| O=C(C/C=N\OCc1ccc([N+](=O)[O-])cc1)Nc1ccc(Cl)cc1 | 5.16% | 0.116 µM [falling, partial curve, poor fit] |  |
| Cc1ccc(NC(=O)N2CCC(C(=O)c3ccc(F)cc3)CC2)cc1 | 12.6% | 6.51 µM [rising, single point] |  |
| COc1cc(C(=O)NCc2cc3cc(Cl)ccc3n2C)cc(OC)c1OC | -29.4% |  |  |
| CN(C)CC/C=C1\c2cc(F)ccc2CSc2ccccc21 | -7.16% | 20.6 µM [rising, single point] |  |
| COc1cccc(-c2ccc(SCC(=O)N3CCOCC3)nn2)c1 | -33.3% | 1.46 µM [falling, partial curve] | 1.84 µM [falling, partial curve] |
| CCCCCCCN(C(=O)CCl)c1cccc(C)c1 | -31.8% | 20.6 µM [falling, single point] | 20.6 µM [falling, single point] |
| CC(=O)C1=C(O)C(=O)N(CCC(=O)O)C1c1ccccc1[N+](=O)[O-] (stereo not drawn) | 9.19% | 0.326 µM [falling, partial curve, poor fit] |  |
| CCC(C)(C)NC(=O)C(c1ccc(C)cc1)N(Cc1ccco1)C(=O)CCC(=O)Nc1nccs1 (stereo not drawn) | -41.9% | 3.66 µM [falling, single point] | 29.1 µM [falling, single point] |
| CCn1c(COc2ccc(C)cc2)nnc1SCC(=O)Nc1ccc2c(c1)OCCO2 | -1.49% | 0.13 µM [falling, full curve, poor fit] |  |
| COc1ccc(CNC(=O)COC(=O)CCn2c(C)csc2=O)cc1OC | 3.19% |  |  |
| Cc1ccc(C(=O)c2ccccc2C(=O)O)cc1C |  |  | 0.58 µM [falling, single point] |
